Laboratory results: PubChem BioAssay AID485353 (National Center for Advancing Translational Sciences (NCATS), 2010)
The campaign covered roughly 330,000 compounds. About 610 (0.18%) were called active. Inconclusive results, whose numbers are uncertain, are shown with a selection of clear calls. Calls come from the whole dose curve. A potency beside an inconclusive call is a rough fit, not a confirmed value.
Potency is the fitted concentration of half-maximal effect.

Assay: qHTS of Yeast-based Assay for SARS-CoV PLP; note: nearly all actives have a fitted effect of over 55% in size
Conditions: S. cerevisiae expressing SARS-CoV PLpro; Potency: growth rescue; series mostly up to 32.9 µM
With `CC(C)c1ccc(NC(=O)[C@@H](C)NC(=O)[C@@H]2Cc3ccccc3CN2)cc1` the Potency was inconclusive: 3.98 µM [activator, single point].
With `CCOC(=O)C1CCN(c2cc(=O)n(-c3ccccc3Cl)c(=O)[nH]2)CC1` the Potency was inconclusive: 12.6 µM [activator, partial curve].
With `Cc1ccc2nc(SCC(=O)N(CC(C)C)c3c(N)n(CC(C)C)c(=O)[nH]c3=O)[nH]c2c1` the Potency was inconclusive: 3.16 µM [activator, single point].
In the case of `CCCn1nc(CC(=O)O)c2ccccc2c1=O`, the Potency is reported as inconclusive: 20 µM [activator, single point].
In the case of `CCc1nc2c(c(=O)[nH]1)C1(CCCC1)Cc1ccccc1-2`, the Potency is reported as “inactive”.
In the case of `O=C(COc1ccc(Br)cc1)NCCNC(=O)c1ccncc1`, the Potency is reported as inconclusive: 3.16 µM [activator, single point].
In the case of `O=C(Oc1ccc2c3c(c(=O)oc2c1)CCCC3)c1cccs1`, the Potency is reported as inconclusive: 1 µM [activator, partial curve].
With `CNC(=S)NC1CC2CCCC(C1)N2CC(C)C` (configuration not stated) the Potency was inconclusive: 2.51 µM [activator, partial curve].
For `Cc1sc(NC(=O)C2CCCCC2C(=O)O)c(C(N)=O)c1-c1ccc(C(C)(C)C)cc1` (configuration not stated), the Potency was inconclusive: 3.16 µM [activator, single point].
In the case of `Cc1cc(=O)oc2cc(NC(=O)COc3ccccc3[N+](=O)[O-])ccc12`, the Potency is reported as “inactive”.
For `O=C(Nc1cc(S(=O)(=O)N2CCOCC2)ccc1N1CCOCC1)c1ccc([N+](=O)[O-])s1`, the Potency was “inactive”.
For `O=C(Cc1cccs1)NCc1ccco1`, the Potency was “inactive”.
In the case of `CC(C)c1ccc(NC(=O)CSc2nc(=O)[nH]c3c2CCCC3)cc1`, the Potency is reported as “inactive”.
In the case of `Cc1ccc2oc(C(=O)NCC(c3ccco3)N3CCCC3)c(C)c2c1` (configuration not stated), the Potency is reported as “inactive”.
For `C1CC2OC2CC1C1CO1` (configuration not stated), the Potency was inconclusive: 14.1 µM [activator, single point].
For `O=C(NC(c1ccccc1)c1cc(Cl)c2cccnc2c1O)c1cccnc1` (configuration not stated), the Potency was active: 1.78 µM.
For `O=C1c2ccccc2S(=O)(=O)N1CC(O)COc1ccc(Cl)cc1` (configuration not stated), the Potency was inconclusive: 20 µM [activator, single point].
In the case of `O=C(NC(n1ccc(=O)[nH]c1=O)C(Cl)(Cl)Cl)C12CC3CC(CC(C3)C1)C2` (configuration not stated), the Potency is reported as inconclusive: 2.82 µM [activator, partial curve].
With `COc1ccc([C@]23Cc4ccccc4C(O2)c2c(c4ccc(OC)cc4oc2=O)O3)cc1` the Potency was inconclusive: 0.708 µM [activator, single point].
For `O=C(Oc1ccc(C(=S)N2CCOCC2)cc1Cl)c1ccccc1F`, the Potency was inconclusive: 11.2 µM [activator, partial curve].
For `Cc1ccc(NC(=O)c2cc(C)on2)cc1`, the Potency was “inactive”.
For `NC(=NCCc1ccccc1)NS(=O)(=O)c1ccc(F)cc1`, the Potency was inconclusive: 3.98 µM [activator, single point].
For `COC(=O)CCC(=O)N1CCCC(N2CCN(c3ccc(OC)cc3)CC2)C1` (configuration not stated), the Potency was inconclusive: 3.55 µM [activator, single point].
For `O=C(Nc1ccc(Cl)cc1)OC(CN1CCCCC1)C(F)(F)F` (configuration not stated), the Potency was inconclusive: 3.98 µM [activator, single point].
In the case of `CCOc1ccc(CCNC(=O)Cn2cccc2C(=O)c2ccccc2)cc1OCC`, the Potency is reported as inconclusive: 3.16 µM [activator, full curve, poor fit].
For `Cc1ccc(CN2CCN(/N=C/c3cccs3)CC2)cc1`, the Potency was inconclusive: 0.316 µM [activator, full curve, poor fit].
For `CCCC(=O)NC(c1ccccc1)c1ccc2cccnc2c1O` (configuration not stated), the Potency was inconclusive: 2.82 µM [activator, single point].
For `O=C(NN=C1CCCCC1)NC1CCCCC1`, the Potency was inconclusive: 15.8 µM [activator, partial curve, poor fit].
For `NC(=O)Cn1c(=O)oc2ccccc21`, the Potency was inconclusive: 3.98 µM [activator, single point].
With `CC(=O)N1CC(=O)Nc2ccc(Cl)cc2C1c1ccc(F)cc1` (configuration not stated) the Potency was inconclusive: 12.6 µM [activator, partial curve].
With `COC(=O)c1ccc(-c2ccc(/C=N/NC(=O)CC3(C)OCCCO3)o2)cc1` the Potency was “inactive”.
In the case of `CCc1ccc(N=c2c([N+](=O)[O-])nn(-c3ccc4c(c3)OCCO4)n2O)cc1`, the Potency is reported as “inactive”.
For `Cc1cc(/C=C2/C(=N)N3C(=NC2=O)SN=C3S(C)(=O)=O)c(C)n1-c1ccc(F)cc1`, the Potency was “inactive”.
In the case of `CCN(CC)S(=O)(=O)c1ccc(Cl)c(C(=O)Oc2cccnc2)c1`, the Potency is reported as “inactive”.
In the case of `CCOC(=O)Nc1ccc2c(CN3CCN(S(=O)(=O)c4ccccc4)CC3)cc(=O)oc2c1`, the Potency is reported as inconclusive: 11.2 µM [activator, partial curve].
With `CCCc1[nH]nc2c1C(c1ccc(OC(=O)N3CCOCC3)cc1)C(C#N)=C(N)O2` (configuration not stated) the Potency was “inactive”.
With `CC1CCCC(NC(=O)C2CC(=O)N(Cc3ccccc3)C2)C1C` (configuration not stated) the Potency was inconclusive: 3.98 µM [activator, single point].
For `Cc1nc(N)sc1-c1csc(Nc2ccc(S(N)(=O)=O)cc2)n1`, the Potency was inconclusive: 17.8 µM [activator, single point].
For `COc1ccccc1NC(=S)NNC(=O)c1nn(C)c(C)c1Br`, the Potency was active: 15.8 µM.
With `CC(Oc1ccc(Br)cc1)C(=O)NCC(C)(C)N1CCOCC1` (configuration not stated) the Potency was “inactive”.
With `COc1ccc2ccc(O)c(CN(C)CC(=O)Nc3ccccc3C(F)(F)F)c2c1` the Potency was “inactive”.
In the case of `Cc1cc(C)c(S(=O)(=O)N2CCCOC2CNC(=O)C(=O)NCCCn2ccnc2)c(C)c1` (configuration not stated), the Potency is reported as inconclusive: 20 µM [activator, single point].
With `Cc1ccc(CSc2nnc(Cn3c(=O)sc4ccccc43)n2C)cc1` the Potency was inconclusive: 10 µM [activator, single point].
In the case of `CC(C(=O)Nc1ccc2c(c1)OCO2)n1cnc2c1c(=O)n(C)c(=O)n2C` (configuration not stated), the Potency is reported as “inactive”.
In the case of `CCOc1ccc(-n2cc(C(=O)NC(C)C)c3cc(OC)c(OC)cc3c2=O)cc1`, the Potency is reported as “inactive”.
For `CCCn1c(=O)c(C(=O)NCCc2ccc(OC)c(OC)c2)c(O)c2ccccc21`, the Potency was inconclusive: 10 µM [activator, single point].
For `N=C(CC1CC(=O)NC(=O)C1)C1=C(O)CCCC1=O`, the Potency was inconclusive: 15.8 µM [activator, partial curve, poor fit].
For `Cc1ccc(-n2nnnc2-c2cnoc2-c2cccc(F)c2)cc1`, the Potency was inconclusive: 10 µM [activator, single point].
With `CC(C)(C)c1ccc(Oc2ccc(N)cc2)cc1` the Potency was inconclusive: 3.98 µM [activator, single point].
In the case of `O=c1c2ccccc2ncn1-c1ccccc1C(F)(F)F`, the Potency is reported as “inactive”.
For `O=C(Cn1nnc(-c2ccccc2F)n1)Nc1ccc2c(c1)OCO2`, the Potency was inconclusive: 3.16 µM [activator, partial curve].
For `Cc1ccc(C)c(N2CC(=O)N(c3cc(C)ccc3C)CC2=O)c1`, the Potency was inconclusive: 2.51 µM [activator, full curve, poor fit].
With `O=C(CCl)Nc1cccn2ncnc12` the Potency was inconclusive: 11.2 µM [activator, partial curve].
In the case of `O=C(CCN1CCN(c2ccccc2F)CC1)Nc1ccccc1F`, the Potency is reported as inconclusive: 14.1 µM [activator, single point].
For `COc1ccc(C2C3=C(Nc4ncnn42)c2ccccc2CCC3)cc1` (configuration not stated), the Potency was “inactive”.
In the case of `Cc1occc1C(=O)n1cnc2ccccc21`, the Potency is reported as inconclusive: 3.98 µM [activator, single point].
For `CCN(CC)S(=O)(=O)c1ccc(N2CCCC2)c(NS(=O)(=O)c2ccc(OC)cc2)c1`, the Potency was inconclusive: 12.6 µM [activator, partial curve].
With `O=C(NCc1cc([N+](=O)[O-])ccc1O)c1cccnc1Sc1ccccc1Cl` the Potency was inconclusive: 3.16 µM [activator, single point].
In the case of `CCOC(=O)C(C(=O)NCc1ccc(F)cc1)c1ncc(C(F)(F)F)cc1Cl` (configuration not stated), the Potency is reported as “inactive”.
For `CC1(C)CSC(=NCc2ccccc2)N1C(=O)c1cccc([N+](=O)[O-])c1`, the Potency was “inactive”.
With `CC(OC(=O)Cc1n[nH]c(=O)c2ccccc12)C(=O)Nc1ccc(F)cc1Cl` (configuration not stated) the Potency was “inactive”.
In the case of `O=C(NC(=S)N1CCN(c2ccccc2)CC1)c1ccco1`, the Potency is reported as inconclusive: 14.1 µM [activator, partial curve].
For `COc1ccc(NC(=O)Cn2nc(C)c3ccccc3c2=O)cc1`, the Potency was inconclusive: 14.1 µM [activator, partial curve].
In the case of `CC1CCCC(NC(=O)NC(=O)CCl)C1C` (configuration not stated), the Potency is reported as inconclusive: 20 µM [activator, single point].
With `COC(=O)c1ccc(C(=O)OC)c(NC(=O)CN2CCN(c3ccccc3)CC2)c1` the Potency was inconclusive: 20 µM [activator, single point].
For `Cc1cc(-c2onc(C)c2C(=O)N/N=C/c2ccccc2)no1`, the Potency was “inactive”.
With `CCOC(=O)N1CCN(C(=O)c2ccccc2NC(=O)c2ccc(Br)cc2)CC1` the Potency was “inactive”.
In the case of `Cc1ccccc1NC(=S)N1CCN(Cc2ccc3c(c2)OCO3)CC1`, the Potency is reported as inconclusive: 12.6 µM [activator, partial curve, poor fit].
For `CC(=O)c1cccc(NC(=S)N2CCN(S(=O)(=O)c3ccccc3)CC2)c1`, the Potency was inconclusive: 2.82 µM [activator, single point].
In the case of `COc1cccc(NC(=O)COC(=O)c2ccccc2C(=O)N(C)c2ccccc2)c1`, the Potency is reported as “inactive”.
For `O=C(CSc1nnc(-c2ccccc2)n1Cc1ccccc1)NNC(=O)c1ccccc1O`, the Potency was active: 5.01 µM.
In the case of `CC(C)CN(c1ccccc1)S(=O)(=O)c1nnc(NC(=O)c2ccco2)s1`, the Potency is reported as inconclusive: 1.41 µM [activator, partial curve].
